Laboratory results published in publication PMC8447601.
No constants are given. Whether binding was seen depends on the method and setting. Binding seen in cells or lysates may run through a third protein. Some entries that bind do so weakly or less than the wild type. Sequences can lack the tags named with a protein. One block for each binder: values may come before it.

What was measured:
[1] = molecular target: T1, TSN2 fused to CFP or YFP for FRET (Arabidopsis thaliana) (UniProt Q9FLT0); assay: FRET or BRET; acceptor photobleaching FRET with the CFP-YFP pair in N. benthamiana leaves under HS (39°C for 40 min); empty vector as negative control
T1 sequence: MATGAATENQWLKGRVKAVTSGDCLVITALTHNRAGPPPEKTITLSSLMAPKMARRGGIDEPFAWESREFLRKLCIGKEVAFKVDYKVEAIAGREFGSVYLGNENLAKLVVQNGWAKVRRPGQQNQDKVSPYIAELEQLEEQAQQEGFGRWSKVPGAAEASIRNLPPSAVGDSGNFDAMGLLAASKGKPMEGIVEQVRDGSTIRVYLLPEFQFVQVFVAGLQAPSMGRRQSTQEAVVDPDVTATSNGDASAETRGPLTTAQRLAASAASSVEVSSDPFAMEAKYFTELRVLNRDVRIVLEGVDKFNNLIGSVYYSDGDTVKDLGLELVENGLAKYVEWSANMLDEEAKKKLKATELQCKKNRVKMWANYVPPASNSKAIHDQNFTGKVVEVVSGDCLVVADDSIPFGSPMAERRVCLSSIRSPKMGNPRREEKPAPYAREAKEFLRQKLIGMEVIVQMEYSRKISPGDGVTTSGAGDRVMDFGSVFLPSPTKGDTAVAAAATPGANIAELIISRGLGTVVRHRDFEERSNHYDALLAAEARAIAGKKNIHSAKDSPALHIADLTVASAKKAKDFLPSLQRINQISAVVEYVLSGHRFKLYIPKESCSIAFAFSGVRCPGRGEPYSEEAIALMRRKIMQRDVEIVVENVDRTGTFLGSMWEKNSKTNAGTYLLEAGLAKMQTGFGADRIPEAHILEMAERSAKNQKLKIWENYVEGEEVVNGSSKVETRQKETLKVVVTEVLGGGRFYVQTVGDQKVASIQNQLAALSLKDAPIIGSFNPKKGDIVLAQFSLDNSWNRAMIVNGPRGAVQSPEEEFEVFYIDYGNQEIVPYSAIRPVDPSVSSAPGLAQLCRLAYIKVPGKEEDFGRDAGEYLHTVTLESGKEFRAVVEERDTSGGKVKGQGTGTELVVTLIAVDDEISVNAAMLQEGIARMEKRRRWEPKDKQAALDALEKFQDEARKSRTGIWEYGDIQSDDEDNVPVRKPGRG

[2] = molecular target: T2, GFP‐TSN2 (Arabidopsis thaliana) (UniProt Q9FLT0); assay: co-IP; extracts of N. benthamiana leaves agro-infiltrated with GFP-TSN1, GFP-TSN2 or free GFP and Myc-RH12; blots with α-Myc and α-GFP
T2 sequence: T1 sequence

[3] = molecular target: T3, GFP‐TSN1 (Arabidopsis thaliana) (UniProt Q8VZG7); assay: as above
T3 sequence: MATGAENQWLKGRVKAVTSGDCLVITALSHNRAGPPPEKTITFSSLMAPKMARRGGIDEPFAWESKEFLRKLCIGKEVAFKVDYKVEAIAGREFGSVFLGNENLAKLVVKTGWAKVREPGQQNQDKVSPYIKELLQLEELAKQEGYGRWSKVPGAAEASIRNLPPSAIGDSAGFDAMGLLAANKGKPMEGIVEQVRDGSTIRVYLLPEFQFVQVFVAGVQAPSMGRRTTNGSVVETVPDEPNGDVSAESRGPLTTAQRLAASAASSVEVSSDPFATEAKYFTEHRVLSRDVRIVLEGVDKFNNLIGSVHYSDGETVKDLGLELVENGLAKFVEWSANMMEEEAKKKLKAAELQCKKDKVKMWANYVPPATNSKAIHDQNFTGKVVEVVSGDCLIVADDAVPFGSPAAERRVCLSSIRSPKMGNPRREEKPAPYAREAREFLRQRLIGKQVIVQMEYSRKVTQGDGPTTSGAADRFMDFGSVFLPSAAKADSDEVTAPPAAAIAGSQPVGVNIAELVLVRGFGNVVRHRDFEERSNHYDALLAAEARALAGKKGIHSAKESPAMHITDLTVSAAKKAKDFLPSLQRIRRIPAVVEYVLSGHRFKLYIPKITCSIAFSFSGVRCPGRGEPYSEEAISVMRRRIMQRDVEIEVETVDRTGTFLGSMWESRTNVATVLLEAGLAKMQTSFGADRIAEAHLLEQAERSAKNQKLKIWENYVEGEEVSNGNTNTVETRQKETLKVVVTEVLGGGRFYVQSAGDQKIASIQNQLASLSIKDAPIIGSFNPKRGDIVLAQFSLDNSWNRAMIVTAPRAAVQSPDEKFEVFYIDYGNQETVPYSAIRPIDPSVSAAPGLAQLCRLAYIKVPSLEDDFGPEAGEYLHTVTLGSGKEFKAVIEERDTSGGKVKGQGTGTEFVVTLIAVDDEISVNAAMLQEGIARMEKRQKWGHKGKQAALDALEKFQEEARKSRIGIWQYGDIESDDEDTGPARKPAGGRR

binding [1]: binds
B1: SnRK1α2 fused to CFP or YFP for FRET (protein, UniProt P92958 1-512)
chain: MDHSSNRFGNNGVESILPNYKLGKTLGIGSFGKVKIAEHVVTGHKVAIKILNRRKIKNMEMEEKVRREIKILRLFMHPHIIRQYEVIETTSDIYVVMEYVKSGELFDYIVEKGRLQEDEARNFFQQIISGVEYCHRNMVVHRDLKPENLLLDSRCNIKIADFGLSNVMRDGHFLKTSCGSPNYAAPEVISGKLYAGPEVDVWSCGVILYALLCGTLPFDDENIPNLFKKIKGGIYTLPSHLSSEARDLIPRMLIVDPVKRITIPEIRQHRWFQTHLPRYLAVSPPDTVEQAKKINEEIVQEVVNMGFDRNQVLESLRNRTQNDATVTYYLLLDNRFRVPSGYLESEFQETTDSGSNPMRTPEAGASPVGHWIPAHVDHYGLGARSQVPVDRKWALGLQSHAHPREIMNEVLKALQELNVCWKKIGHYNMKCRWVPGLADGQNTMVNNQLHFRDESSIIEDDCAMTSPTVIKFELQLYKAREEKYLLDIQRVNGPQFLFLDLCAAFLTELRVI

binding [1]: binds
B2: SnRK1α1 fused to CFP or YFP for FRET (protein, UniProt Q38997 1-512)
chain: MDGSGTGSRSGVESILPNYKLGRTLGIGSFGRVKIAEHALTGHKVAIKILNRRKIKNMEMEEKVRREIKILRLFMHPHIIRLYEVIETPTDIYLVMEYVNSGELFDYIVEKGRLQEDEARNFFQQIISGVEYCHRNMVVHRDLKPENLLLDSKCNVKIADFGLSNIMRDGHFLKTSCGSPNYAAPEVISGKLYAGPEVDVWSCGVILYALLCGTLPFDDENIPNLFKKIKGGIYTLPSHLSPGARDLIPRMLVVDPMKRVTIPEIRQHPWFQAHLPRYLAVPPPDTVQQAKKIDEEILQEVINMGFDRNHLIESLRNRTQNDGTVTYYLILDNRFRASSGYLGAEFQETMEGTPRMHPAESVASPVSHRLPGLMEYQGVGLRSQYPVERKWALGLQSRAHPREIMTEVLKALQDLNVCWKKIGHYNMKCRWVPNSSADGMLSNSMHDNNYFGDESSIIENEAAVKSPNVVKFEIQLYKTRDDKYLLDLQRVQGPQFLFLDLCAAFLAQLRVL

binding [2]: binds
binding [3]: binds
B3: Myc‐RH12 (protein, UniProt Q9M2E0 1-498)
chain: MNTNRGRYPPGVGTGRGAPPNPDYHQSYRQQQPPQDQQYVQRGYSQNPQQMQLQQQHQQQQQQQQWSRRPQLPGNASNANEVVQQTTQPEASSDANGQDWKATLRLPPPDTRYQTADVTATKGNEFEDYFLKRDLLKGIYEKGFEKPSPIQEESIPIALTGSDILARAKNGTGKTGAFCIPVLEKIDPNNNVIQAMILVPTRELALQTSQVCKELSKYLNIQVMVTTGGTSLRDDIMRLHQPVHLLVGTPGRILDLTKKGVCVLKDCAMLVMDEADKLLSAEFQPSLEELIQFLPQNRQFLMFSATFPVTVKAFKDRHLRKPYVINLMDQLTLMGVTQYYAFVEERQKVHCLNTLFSKLQINQSIIFCNSVNRVELLAKKITELGYSCFYIHAKMVQDHRNRVFHEFRNGACRNLVCTDLFTRGIDIQAVNVVINFDFPRTSESYLHRVGRSGRFGHLGLAVNLVTYEDRFKMYQTEQELGTEIKPIPSNIDQAIYCQ
